Results on two substances are retold here after publication PMC10726481 (ACS Medicinal Chemistry Letters, 2023).

The nature of this series: general procedure: Fmoc solid-phase peptide synthesis; 2-CT-Cl resin. Particulars: whole synthesis; for isolated yield: overall.

For the substance D-Phe 1-D-Dap8-Arg10-teixobactin, the isolated yield is on record as 8.2%.
In turn, D-Dap 8-Arg10-teixobactin showed an isolated yield of 11.8%. The “final HPLC purity” value (% Area) is 99.52%.
